Our source for the binding signal values is PMC7862700.

Sequences of proteins named here, by UniProt entry; tags and fusion partners are left off. A change or cut given only in a name is not applied to a line headed by its entry.
UniProt Q01892: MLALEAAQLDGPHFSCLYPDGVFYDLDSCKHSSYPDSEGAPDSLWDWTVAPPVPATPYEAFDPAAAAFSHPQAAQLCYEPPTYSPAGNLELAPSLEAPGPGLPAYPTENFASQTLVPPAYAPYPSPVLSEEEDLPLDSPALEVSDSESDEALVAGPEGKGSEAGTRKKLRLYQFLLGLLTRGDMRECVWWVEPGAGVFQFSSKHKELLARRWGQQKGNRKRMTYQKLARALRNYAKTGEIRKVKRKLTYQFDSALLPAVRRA
UniProt P41161: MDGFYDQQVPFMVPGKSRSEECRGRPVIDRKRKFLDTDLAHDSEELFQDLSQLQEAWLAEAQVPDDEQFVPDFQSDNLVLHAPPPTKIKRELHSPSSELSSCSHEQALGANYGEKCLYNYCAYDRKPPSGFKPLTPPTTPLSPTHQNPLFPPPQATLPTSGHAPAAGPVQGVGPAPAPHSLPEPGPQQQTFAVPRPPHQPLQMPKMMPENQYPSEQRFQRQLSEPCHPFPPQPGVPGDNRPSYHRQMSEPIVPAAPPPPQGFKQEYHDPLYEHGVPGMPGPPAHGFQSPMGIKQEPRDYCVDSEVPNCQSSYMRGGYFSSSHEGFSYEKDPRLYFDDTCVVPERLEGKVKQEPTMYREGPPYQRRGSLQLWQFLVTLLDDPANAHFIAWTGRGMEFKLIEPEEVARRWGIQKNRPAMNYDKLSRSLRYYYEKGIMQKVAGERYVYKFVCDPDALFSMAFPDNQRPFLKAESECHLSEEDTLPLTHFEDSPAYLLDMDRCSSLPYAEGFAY
UniProt Q99607: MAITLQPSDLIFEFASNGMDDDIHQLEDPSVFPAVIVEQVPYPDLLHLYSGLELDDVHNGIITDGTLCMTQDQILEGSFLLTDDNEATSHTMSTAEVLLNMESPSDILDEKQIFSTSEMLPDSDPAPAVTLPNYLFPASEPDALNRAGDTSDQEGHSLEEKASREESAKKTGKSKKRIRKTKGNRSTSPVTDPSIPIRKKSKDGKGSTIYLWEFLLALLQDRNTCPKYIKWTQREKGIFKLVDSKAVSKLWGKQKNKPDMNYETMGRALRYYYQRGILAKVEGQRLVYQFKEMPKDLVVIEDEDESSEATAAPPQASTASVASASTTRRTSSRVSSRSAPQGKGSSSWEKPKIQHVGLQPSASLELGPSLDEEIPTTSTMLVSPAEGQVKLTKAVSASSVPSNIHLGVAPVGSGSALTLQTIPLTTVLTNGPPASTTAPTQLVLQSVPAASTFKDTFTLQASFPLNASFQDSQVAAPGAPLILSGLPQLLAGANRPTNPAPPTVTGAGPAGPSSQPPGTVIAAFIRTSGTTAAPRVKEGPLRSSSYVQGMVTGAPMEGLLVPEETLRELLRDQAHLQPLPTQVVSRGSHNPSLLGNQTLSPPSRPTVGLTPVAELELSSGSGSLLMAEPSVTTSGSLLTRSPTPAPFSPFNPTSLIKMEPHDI

This is a selection; strong and weak results do not stand in their true shares. At the low end of the ranking, values are background and their order means little.

Some targets named below: SPIB (UniProt Q01892); ETV5 (UniProt P41161); ELF4 (UniProt Q99607).
Experiment in all cases: DAPPL (digital affinity profiling via proximity ligation, sequencing)
What all share (settings): 10 mM Tris-HCl pH 7.5, 50 mM NaCl, 1 mM DTT, 4% glycerol, room temperature, 30 min; GST-TFs on glutathione beads, 16-mer random dsDNA library, 0.1% …; high values mean tight binding; double strand, one strand shown; scale: fold enrichment (6-mer frequency, TF over GST control)

A further experiment concerns the target T1, FLI1 (UniProt Q01543).
T1 sequence: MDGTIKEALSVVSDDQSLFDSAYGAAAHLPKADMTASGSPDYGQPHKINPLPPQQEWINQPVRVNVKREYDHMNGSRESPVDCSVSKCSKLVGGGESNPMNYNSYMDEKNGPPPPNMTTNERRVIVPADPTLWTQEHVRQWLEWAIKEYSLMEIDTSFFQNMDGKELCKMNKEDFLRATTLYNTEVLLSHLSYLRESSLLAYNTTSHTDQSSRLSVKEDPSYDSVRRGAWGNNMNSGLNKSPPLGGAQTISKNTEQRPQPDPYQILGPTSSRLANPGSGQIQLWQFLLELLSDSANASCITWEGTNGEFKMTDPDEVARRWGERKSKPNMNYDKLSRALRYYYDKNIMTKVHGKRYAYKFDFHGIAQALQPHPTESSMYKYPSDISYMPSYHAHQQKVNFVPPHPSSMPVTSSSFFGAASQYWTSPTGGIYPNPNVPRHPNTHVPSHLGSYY

In the next experiment the target is T2, EHF (UniProt Q9NZC4).
T2 sequence: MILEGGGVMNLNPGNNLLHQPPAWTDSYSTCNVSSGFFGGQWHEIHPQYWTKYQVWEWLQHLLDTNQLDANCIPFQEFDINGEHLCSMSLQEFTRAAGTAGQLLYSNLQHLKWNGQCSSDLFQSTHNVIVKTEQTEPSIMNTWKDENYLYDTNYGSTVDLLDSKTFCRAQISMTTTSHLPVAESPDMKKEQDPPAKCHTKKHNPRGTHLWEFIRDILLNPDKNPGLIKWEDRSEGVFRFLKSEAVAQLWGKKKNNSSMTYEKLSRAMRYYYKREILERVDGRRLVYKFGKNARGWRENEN

In the next experiment the target is T3, ETV2 (UniProt O00321).
T3 sequence: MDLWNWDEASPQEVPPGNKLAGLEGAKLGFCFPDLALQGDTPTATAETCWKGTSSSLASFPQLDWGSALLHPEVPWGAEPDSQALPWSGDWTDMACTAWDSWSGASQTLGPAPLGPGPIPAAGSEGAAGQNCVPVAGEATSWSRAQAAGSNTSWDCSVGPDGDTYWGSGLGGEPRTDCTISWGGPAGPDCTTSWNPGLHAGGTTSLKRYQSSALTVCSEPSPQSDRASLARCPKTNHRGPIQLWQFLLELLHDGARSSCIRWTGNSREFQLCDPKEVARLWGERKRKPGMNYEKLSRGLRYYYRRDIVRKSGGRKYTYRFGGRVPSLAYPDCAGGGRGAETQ

In a further experiment the target is T4, ETV3L (UniProt Q6ZN32).
T4 sequence: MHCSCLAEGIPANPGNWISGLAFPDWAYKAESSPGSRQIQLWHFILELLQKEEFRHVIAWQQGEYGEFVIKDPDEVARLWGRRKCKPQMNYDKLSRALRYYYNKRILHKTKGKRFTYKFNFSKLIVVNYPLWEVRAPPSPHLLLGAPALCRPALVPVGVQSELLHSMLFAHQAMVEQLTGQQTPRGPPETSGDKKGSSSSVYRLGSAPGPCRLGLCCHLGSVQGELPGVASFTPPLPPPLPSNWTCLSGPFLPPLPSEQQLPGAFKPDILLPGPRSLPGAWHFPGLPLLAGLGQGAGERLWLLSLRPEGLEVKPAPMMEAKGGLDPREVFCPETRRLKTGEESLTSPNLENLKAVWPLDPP

As to GCCGTG, the binding signal stood at 0.258 with FLI1; 0.239 in the experiment with EHF; 0.207 with SPIB; 0.243 with ETV5; 0.239 in the experiment with ELF4; 0.251 in the experiment with ETV2. The sequence also yielded a binding signal in the experiment with ETV3L of 0.272.
Consider ATGTGA, for which the binding signal was 0.692 in the experiment with FLI1; 0.624 with EHF; 0.642 with SPIB; 0.644 with ETV5; 0.621 with ELF4; 0.594 with ETV2. The sequence also returned a binding signal in the experiment with ETV3L of 0.722.
Consider GTAGGA, for which the binding signal with FLI1 was found to be 0.601; with EHF, 0.588; in the experiment with SPIB, 0.612; with ETV5, 0.64; with ELF4 it was 0.534; with ETV2, 0.626. For the same sequence, the binding signal in the experiment with ETV3L worked out at 0.612.
Turning to GGGTCA, the binding signal was 0.665 with FLI1; 0.68 in the experiment with EHF; 0.715 with SPIB; 0.675 with ETV5; 0.732 with ELF4; 0.709 with ETV2. In addition, the binding signal with ETV3L is 0.768.
With AAGGAG, the binding signal with FLI1 was found to be 0.343; in the experiment with EHF, 0.373; with SPIB it was 0.337; with ETV5, 0.359; with ELF4, 0.32; in the experiment with ETV2 it was 0.296. The binding signal in the experiment with ETV3L turned out to be 0.341.
GGCGCG: the binding signal with FLI1 was found to be 0.641; with EHF it was 0.721; with SPIB, 0.584; with ETV5 it was 0.637; with ELF4, 0.713; with ETV2 it was 0.608. This sequence also yielded a binding signal with ETV3L of 0.752.
Consider AGAGTA, for which the binding signal with FLI1 is 0.76; with EHF, 0.833; with SPIB it was 0.772; with ETV5, 0.805; in the experiment with ELF4 it was 0.801; with ETV2 it was 0.765. This sequence also gave a binding signal in the experiment with ETV3L of 0.763.
Regarding CATAGG, the binding signal with FLI1 came out at 0.679; with EHF it was 0.742; with SPIB, 0.79; with ETV5, 0.866; in the experiment with ELF4, 0.739; in the experiment with ETV2, 0.804. The binding signal with ETV3L amounted to 0.783.
Take GAGTGG: the binding signal with FLI1 turned out to be 0.637; with EHF, 0.668; in the experiment with SPIB, 0.585; in the experiment with ETV5, 0.633; with ELF4, 0.628; in the experiment with ETV2, 0.678. Moreover, the binding signal in the experiment with ETV3L stood at 0.631.
For CGCGGG, the binding signal is 0.781 with FLI1; 0.715 with EHF; 0.814 with SPIB; 0.708 in the experiment with ETV5; 0.767 in the experiment with ELF4; 0.823 with ETV2. The sequence also registered a binding signal with ETV3L of 0.739.
As to CAGGGG, the binding signal with FLI1 was determined as 0.64; with EHF, 0.558; with SPIB, 0.556; with ETV5, 0.595; with ELF4, 0.624; with ETV2 it was 0.582. In the experiment with ETV3L, the binding signal is 0.543.
With AGTTGT, the binding signal came out at 0.811 in the experiment with FLI1; 0.839 with EHF; 0.876 in the experiment with SPIB; 0.83 in the experiment with ETV5; 0.796 in the experiment with ELF4; 0.714 in the experiment with ETV2. The sequence further registered a binding signal with ETV3L of 0.781.
For GCCGCG, the binding signal in the experiment with FLI1 turned out to be 0.832; with EHF, 0.828; with SPIB, 0.837; with ETV5, 0.806; with ELF4, 0.88; in the experiment with ETV2, 0.892. This sequence also returned a binding signal in the experiment with ETV3L of 0.765.
For the sequence ATTGGA, the binding signal was found to be 0.902 with FLI1; 0.98 with EHF; 0.943 with SPIB; 0.891 in the experiment with ETV5; 0.918 with ELF4; 0.832 in the experiment with ETV2. The binding signal with ETV3L is 0.871.
With CAGTTG, the binding signal stood at 0.508 with FLI1; 0.466 with EHF; 0.466 with SPIB; 0.498 in the experiment with ETV5; 0.428 with ELF4; 0.476 with ETV2. The binding signal with ETV3L came out at 0.504.
For GACGGG, the binding signal stood at 0.416 with FLI1; 0.417 with EHF; 0.419 with SPIB; 0.443 with ETV5; 0.429 in the experiment with ELF4; 0.423 with ETV2. The same sequence registered a binding signal with ETV3L of 0.432.
Take CGCATT: the binding signal worked out at 0.81 in the experiment with FLI1; 0.817 in the experiment with EHF; 0.808 with SPIB; 0.816 with ETV5; 0.803 with ELF4; 0.793 with ETV2. In the experiment with ETV3L, this sequence had a binding signal of 0.775.
With GGTTGG, the binding signal worked out at 0.621 with FLI1; 0.782 with EHF; 0.717 with SPIB; 0.663 in the experiment with ETV5; 0.753 with ELF4; 0.644 with ETV2. This sequence returned a binding signal with ETV3L of 0.741.
Regarding CCAGTA, the binding signal with FLI1 was found to be 0.659; with EHF, 0.732; in the experiment with SPIB, 0.688; with ETV5 it was 0.658; in the experiment with ELF4, 0.71; in the experiment with ETV2, 0.694. The sequence further showed a binding signal in the experiment with ETV3L of 0.665.
Consider GGCCAA, for which the binding signal was found to be 0.849 with FLI1; 0.789 with EHF; 0.737 with SPIB; 0.832 with ETV5; 0.885 with ELF4; 0.812 in the experiment with ETV2. Besides, in the experiment with ETV3L, the binding signal was determined as 0.828.
Regarding CGGGCC, the binding signal is 0.785 with FLI1; 0.74 in the experiment with EHF; 0.725 in the experiment with SPIB; 0.77 with ETV5; 0.752 with ELF4; 0.715 with ETV2. In the experiment with ETV3L, the binding signal was 0.724.
GAGTCG: the binding signal with FLI1 was determined as 0.229; in the experiment with EHF it was 0.201; in the experiment with SPIB, 0.222; with ETV5, 0.208; with ELF4 it was 0.233; with ETV2, 0.219. In the experiment with ETV3L, this sequence displayed a binding signal of 0.223.
In the case of GGCGAA, the binding signal with FLI1 stood at 0.662; with EHF, 0.661; with SPIB, 0.737; with ETV5 it was 0.727; in the experiment with ELF4 it was 0.736; with ETV2, 0.638. This sequence also came in with a binding signal with ETV3L of 0.697.
As to CGGGGG, the binding signal in the experiment with FLI1 came out at 0.465; with EHF, 0.446; with SPIB, 0.486; with ETV5, 0.448; with ELF4, 0.446; with ETV2, 0.493. This sequence showed a binding signal in the experiment with ETV3L of 0.507.
In the case of GGCGAG, the binding signal with FLI1 stood at 0.487; with EHF, 0.535; with SPIB, 0.508; in the experiment with ETV5 it was 0.494; with ELF4, 0.504; in the experiment with ETV2, 0.524. The binding signal in the experiment with ETV3L was 0.515.
Take CTGAGA: the binding signal with FLI1 was found to be 0.79; in the experiment with EHF, 0.77; with SPIB, 0.702; in the experiment with ETV5, 0.773; in the experiment with ELF4, 0.783; with ETV2, 0.843. For the same sequence, in the experiment with ETV3L, the binding signal was determined as 0.816.
In the case of CGCATA, the binding signal came to 0.756 with FLI1; 0.713 in the experiment with EHF; 0.743 with SPIB; 0.752 with ETV5; 0.737 with ELF4; 0.654 with ETV2. In the experiment with ETV3L, this sequence came in with a binding signal of 0.735.
For the sequence ACGGAC, the binding signal in the experiment with FLI1 worked out at 0.867; with EHF, 0.859; with SPIB it was 0.877; with ETV5 it was 0.823; with ELF4, 0.861; with ETV2, 0.882. In addition, in the experiment with ETV3L, the binding signal was found to be 0.852.
As to GCATAG, the binding signal in the experiment with FLI1 is 0.744; with EHF, 0.769; in the experiment with SPIB, 0.781; in the experiment with ETV5 it was 0.82; with ELF4, 0.863; in the experiment with ETV2, 0.719. The sequence also registered a binding signal with ETV3L of 0.861.
